Source: article PMC10918171
No constants are given. Whether binding was seen depends on the method and setting. Binding seen in cells or lysates may run through a third protein. Some results given as binding are weak or reduced against the parent protein; the word gives no strength. Each block holds one substance with its values, some of them ahead of it.

By UniProt entry, the sequences of proteins in these tests, tags left out. Where a name states a change or a piece, a line headed by the entry shows the natural chain unless it says otherwise.
UniProt Q9Y4G2: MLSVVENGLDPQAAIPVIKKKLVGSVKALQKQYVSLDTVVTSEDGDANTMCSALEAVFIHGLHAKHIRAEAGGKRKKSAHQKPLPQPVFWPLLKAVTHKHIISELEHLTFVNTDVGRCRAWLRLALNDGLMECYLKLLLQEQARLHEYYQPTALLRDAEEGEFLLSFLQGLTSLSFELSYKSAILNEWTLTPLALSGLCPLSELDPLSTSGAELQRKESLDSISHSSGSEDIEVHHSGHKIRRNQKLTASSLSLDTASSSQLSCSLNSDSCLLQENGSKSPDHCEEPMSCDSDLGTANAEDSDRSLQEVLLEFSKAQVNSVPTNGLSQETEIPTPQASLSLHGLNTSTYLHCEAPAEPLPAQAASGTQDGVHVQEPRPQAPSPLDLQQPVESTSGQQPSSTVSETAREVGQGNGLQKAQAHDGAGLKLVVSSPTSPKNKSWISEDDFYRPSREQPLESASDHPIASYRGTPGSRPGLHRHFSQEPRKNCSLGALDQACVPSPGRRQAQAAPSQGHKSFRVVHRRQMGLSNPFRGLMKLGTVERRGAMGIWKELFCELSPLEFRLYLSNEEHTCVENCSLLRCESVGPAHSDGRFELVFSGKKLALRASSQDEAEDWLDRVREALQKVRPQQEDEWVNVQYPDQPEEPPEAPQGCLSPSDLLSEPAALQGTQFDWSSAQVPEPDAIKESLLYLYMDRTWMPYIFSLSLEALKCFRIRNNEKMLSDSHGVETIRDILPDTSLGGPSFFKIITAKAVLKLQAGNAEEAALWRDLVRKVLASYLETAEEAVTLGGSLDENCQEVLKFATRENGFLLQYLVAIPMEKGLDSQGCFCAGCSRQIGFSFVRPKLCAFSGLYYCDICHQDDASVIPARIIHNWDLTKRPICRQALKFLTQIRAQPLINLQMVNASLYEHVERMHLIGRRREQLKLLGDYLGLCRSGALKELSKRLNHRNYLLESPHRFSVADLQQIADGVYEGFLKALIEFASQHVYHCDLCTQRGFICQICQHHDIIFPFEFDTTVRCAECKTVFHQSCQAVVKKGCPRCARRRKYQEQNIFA
UniProt P51149: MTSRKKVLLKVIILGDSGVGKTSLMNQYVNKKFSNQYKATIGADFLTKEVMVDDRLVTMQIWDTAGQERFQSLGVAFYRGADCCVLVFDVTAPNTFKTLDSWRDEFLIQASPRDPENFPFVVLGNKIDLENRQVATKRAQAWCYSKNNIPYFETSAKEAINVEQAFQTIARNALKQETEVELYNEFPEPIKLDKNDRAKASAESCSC
UniProt Q92609: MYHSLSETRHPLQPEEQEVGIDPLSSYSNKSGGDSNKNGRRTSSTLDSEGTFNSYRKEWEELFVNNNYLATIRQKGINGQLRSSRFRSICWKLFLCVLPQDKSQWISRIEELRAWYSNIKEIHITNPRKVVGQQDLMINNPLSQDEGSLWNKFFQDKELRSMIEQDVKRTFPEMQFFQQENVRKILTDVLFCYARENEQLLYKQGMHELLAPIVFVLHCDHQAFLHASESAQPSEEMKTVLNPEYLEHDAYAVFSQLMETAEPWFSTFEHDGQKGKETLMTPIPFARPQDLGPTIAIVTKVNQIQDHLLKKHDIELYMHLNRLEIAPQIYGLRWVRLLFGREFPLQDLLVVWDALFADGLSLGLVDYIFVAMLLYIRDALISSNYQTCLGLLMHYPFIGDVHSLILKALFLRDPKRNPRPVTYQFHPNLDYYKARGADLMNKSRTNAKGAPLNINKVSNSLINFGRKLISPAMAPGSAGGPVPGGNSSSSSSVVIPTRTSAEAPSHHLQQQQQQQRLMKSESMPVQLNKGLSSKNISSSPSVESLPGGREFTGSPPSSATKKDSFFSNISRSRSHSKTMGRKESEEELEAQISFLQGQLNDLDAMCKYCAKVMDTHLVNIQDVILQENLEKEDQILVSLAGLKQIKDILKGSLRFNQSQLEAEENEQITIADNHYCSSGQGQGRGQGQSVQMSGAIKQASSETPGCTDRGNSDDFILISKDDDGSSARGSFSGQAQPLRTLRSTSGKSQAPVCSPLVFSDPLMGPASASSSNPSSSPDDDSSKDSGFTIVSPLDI
UniProt P0DTC3: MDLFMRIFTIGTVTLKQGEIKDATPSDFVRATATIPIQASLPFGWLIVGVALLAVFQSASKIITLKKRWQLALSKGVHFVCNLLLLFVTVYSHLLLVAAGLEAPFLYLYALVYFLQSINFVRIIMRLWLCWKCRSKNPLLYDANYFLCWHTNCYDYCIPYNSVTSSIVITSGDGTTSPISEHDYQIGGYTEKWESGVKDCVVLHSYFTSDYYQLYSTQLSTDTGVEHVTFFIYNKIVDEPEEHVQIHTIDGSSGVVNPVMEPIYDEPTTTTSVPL

Legend:
Test in all cases: co-IP
[1] = molecular target: T1, TBC1D15 (UniProt Q8TC07)
T1 sequence: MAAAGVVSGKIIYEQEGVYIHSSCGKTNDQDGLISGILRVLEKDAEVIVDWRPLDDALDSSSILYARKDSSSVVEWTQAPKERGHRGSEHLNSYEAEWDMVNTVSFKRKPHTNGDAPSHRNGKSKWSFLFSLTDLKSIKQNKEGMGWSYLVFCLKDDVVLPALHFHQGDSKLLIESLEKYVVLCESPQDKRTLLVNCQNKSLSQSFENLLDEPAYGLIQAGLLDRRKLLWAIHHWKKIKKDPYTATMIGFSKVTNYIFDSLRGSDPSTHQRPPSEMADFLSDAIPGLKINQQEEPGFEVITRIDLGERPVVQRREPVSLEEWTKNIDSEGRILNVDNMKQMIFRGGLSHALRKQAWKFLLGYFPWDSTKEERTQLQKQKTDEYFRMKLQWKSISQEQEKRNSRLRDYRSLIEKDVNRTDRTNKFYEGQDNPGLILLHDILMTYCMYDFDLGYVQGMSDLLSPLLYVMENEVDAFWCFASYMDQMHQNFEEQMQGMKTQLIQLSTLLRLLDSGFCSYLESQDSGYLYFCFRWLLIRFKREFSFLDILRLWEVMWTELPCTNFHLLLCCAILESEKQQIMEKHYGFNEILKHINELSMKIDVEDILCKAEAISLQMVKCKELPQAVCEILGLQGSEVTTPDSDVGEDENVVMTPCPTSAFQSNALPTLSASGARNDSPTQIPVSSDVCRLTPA

[2] = molecular target: T2, Vps39 as used in Supplementary Figs. S3J, S4J, S4K, S4L and as the link in Fig. 5H (UniProt Q96JC1)
T2 sequence: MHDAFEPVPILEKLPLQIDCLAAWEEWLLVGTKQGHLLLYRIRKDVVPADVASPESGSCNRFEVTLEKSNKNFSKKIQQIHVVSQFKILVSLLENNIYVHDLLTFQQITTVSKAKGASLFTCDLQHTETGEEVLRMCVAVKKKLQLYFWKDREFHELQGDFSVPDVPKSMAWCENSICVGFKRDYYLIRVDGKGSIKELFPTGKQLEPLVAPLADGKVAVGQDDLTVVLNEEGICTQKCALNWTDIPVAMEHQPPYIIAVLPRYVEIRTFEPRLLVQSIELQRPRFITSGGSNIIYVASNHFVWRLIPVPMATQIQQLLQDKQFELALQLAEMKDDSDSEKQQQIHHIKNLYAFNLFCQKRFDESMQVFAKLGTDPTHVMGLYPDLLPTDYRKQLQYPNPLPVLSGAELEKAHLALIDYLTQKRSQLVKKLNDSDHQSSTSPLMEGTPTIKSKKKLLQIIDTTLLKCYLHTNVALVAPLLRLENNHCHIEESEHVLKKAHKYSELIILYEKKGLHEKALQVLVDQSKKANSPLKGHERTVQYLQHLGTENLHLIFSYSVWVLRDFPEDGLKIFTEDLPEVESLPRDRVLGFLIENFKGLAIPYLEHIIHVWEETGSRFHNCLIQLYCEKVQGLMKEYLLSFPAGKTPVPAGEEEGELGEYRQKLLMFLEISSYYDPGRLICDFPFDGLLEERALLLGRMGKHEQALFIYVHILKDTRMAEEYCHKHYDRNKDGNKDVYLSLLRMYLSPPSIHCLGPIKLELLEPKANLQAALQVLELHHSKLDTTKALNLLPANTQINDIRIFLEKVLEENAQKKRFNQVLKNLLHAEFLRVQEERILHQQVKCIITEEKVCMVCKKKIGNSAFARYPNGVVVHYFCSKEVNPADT

[3] = molecular target: FLAG-PLEKHM1 (UniProt Q9Y4G2)
[4] = molecular target: Rab7 of human cells, precipitated with anti-Rab7 antibodies or pulled down by GST-RILP (human (endogenous in HeLa, HEK293T, A549)) (UniProt P51149)

- binding [1]: binds
Substance: FLAG-Rab7 (from UniProt P51149 1-207)

- binding [2]: binds
Substance: TBC1D5 as used in the co-IPs of Fig. 5H, 5J and Supplementary Figs. S4J, S4L (from UniProt Q92609 1-795)

Substance: SARS-CoV-2 ORF3a (WT) (from UniProt P0DTC3 1-275)
- binding [3]: binds

- binding [4]: binds
Substance: endogenous PLEKHM1 (from UniProt Q9Y4G2 1-1056)
